Source: PubChem BioAssay AID1347076 (National Center for Advancing Translational Sciences (NCATS), 2019)
Hit rate of the full screen: of about 400,000 compounds, about 13,000 (3.2%) were called active. Inconclusive results, whose numbers are uncertain, are shown with a selection of clear calls. Calls come from the whole dose curve; as a rule, active = well fitted cell-killing curve with a large enough effect; inconclusive = small, poorly fitted or top-dose-only effect, or effect the other way; inactive = flat fitted curve, though single readings scatter. A potency beside an inconclusive call is a rough fit, not a confirmed value.

assay: qHTS assay for MDR1-selective chemotherapeutics: Primary screen using the drug-selected MDR subline cells KB-V1; details: KB-V1 MDR cells viability, CellTiter-Glo, 72 h; series mostly up to 46.1 µM; note: nearly all actives have a fitted effect of over 60% in size
Procedure, shortened: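 Compound-treated KB-V1 multidrug-resistant cells, 72 h, 37 degrees C; viability by CellTiter-Glo. Fitted qHTS curves give the values.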
Potency is the fitted concentration of half-maximal effect.

SMILES | Potency
COc1ccc(-c2noc(-c3ccccc3C(=O)Nc3cccnc3)n2)cc1 | inconclusive: 20.6 µM [cytotoxic, single point]
COc1ccc(C(=O)O)cc1S(=O)(=O)N1CCCc2ccccc21 | inactive
COCCCNC(=O)CSc1nc2ccc(N3CCOCC3)cc2c(=O)n1CCc1ccccc1 | inconclusive: 2.91 µM [cytotoxic, partial curve]
O=C(N/N=C/C=N/NC(=O)c1ccco1)c1ccco1 | inactive
CCOCCCNC(=O)C(c1ccc(OC)cc1)N(Cc1ccc2c(c1)OCO2)C(=O)c1ccccc1O (configuration not stated) | inactive
COc1ccccc1OCc1nnc(SCC(=O)N2CCCCC2)o1 | inconclusive: 29.1 µM [cytotoxic, single point]
CC(=O)Nc1ccc(NC(=O)c2c([N+](=O)[O-])c(C(C)(C)C)nn2C)cc1 | inconclusive: 18.4 µM [cytotoxic, single point]
COc1cc(C(=O)NCCNC(=O)c2ccco2)cc(OC)c1OC | inconclusive: 25.9 µM [cytotoxic, single point]
CCCC(=O)C1=C(O)C(C(=O)OC)C(C)(C)CC1=NCc1ccccc1 (configuration not stated) | inconclusive: 5.8 µM [cytotoxic, full curve]
O=C(c1sccc1Br)N1CCN(Cc2ccc3c(c2)OCO3)CC1 | inconclusive: 29.1 µM [cytotoxic, single point]
CCN1CCN(CC(=O)Nc2ccc(C)cc2C)C(=O)C1=O | inconclusive: 29.1 µM [rising, partial curve, poor fit]
CC(C)(C)c1ccc(-n2ncc3c2CCCC3NC(=O)c2ccco2)cc1 (configuration not stated) | inconclusive: 3.66 µM [cytotoxic, partial curve]
CCc1nc(N2CCCCC2C(=O)O)c2oc3ccccc3c2n1 (configuration not stated) | inactive
COc1cc2nc(CSc3ncn[nH]3)[nH]c(=O)c2cc1OC | inconclusive: 20.6 µM [rising, single point]
O=C(c1ccco1)N(CC1CCCO1)c1nc(-c2ccccc2)cs1 (configuration not stated) | active: 23.1 µM
Cc1ccc(/C=N/NC(=O)CN2CCN(S(=O)(=O)c3ccc(Br)cc3)CC2)s1 | inconclusive: 20.6 µM [cytotoxic, single point]
CCCOc1cccc(C2C(C(=O)c3ccc(C)o3)=C(O)C(=O)N2c2nc(C)c(C(C)=O)s2)c1 (configuration not stated) | inconclusive: 25.9 µM [cytotoxic, partial curve]
N#CCc1nn2c(-c3ccccc3)ccnc2c1C#N | inconclusive: 20.6 µM [rising, single point]
O=C(Cc1ccc(F)cc1)NCCc1ccccc1 | inactive
COc1cc2cc(C(c3nnnn3Cc3ccc(F)cc3)N3CCCCCC3)c(=O)[nH]c2cc1OC (configuration not stated) | inconclusive: 8.2 µM [cytotoxic, partial curve]
COc1ccc(-c2cc(=O)oc3cc(OCC(=O)NCCCn4ccnc4)ccc23)cc1 | inconclusive: 20.6 µM [rising, single point]

SMILES | Potency
COc1ccccc1OCC(=O)Nc1cccc(S(=O)(=O)NC2=NCCCCC2)c1 | inconclusive: 29.1 µM [cytotoxic, single point]
COc1cccc(-n2c(=O)c3c(C)c(C)sc3n(CC(=O)NCc3ccccc3)c2=O)c1 | inactive
COc1ccccc1NS(=O)(=O)c1cc(NC(=O)c2cccnc2)ccc1N1CCCCC1 | inconclusive: 16.4 µM [cytotoxic, partial curve, poor fit]
COc1ccc(NC(=O)c2cnc(Nc3ccc(C)c(Cl)c3)c3ccccc23)cc1OC | inconclusive: 32.6 µM [rising, single point]
Cc1ccsc1/C=N/NC(=O)CN1CCN(S(=O)(=O)c2ccc(Br)cc2)CC1 | inconclusive: 20.6 µM [cytotoxic, single point]
COc1cccc(/C=N/NC(=O)C(=O)NCc2ccco2)c1O | inconclusive: 23.1 µM [cytotoxic, single point]
Cc1ccc(C)c(Cn2c(=O)cc(C)c3c(C)nn(-c4cccc(F)c4)c32)c1 | inactive
O=C(c1ccc(COc2ccccc2Br)o1)N1N=C(C(F)F)CC1(O)C(F)F (configuration not stated) | active: 23.1 µM
O=S(=O)(c1ccc(OCC(O)CN2CCN(c3ccc(F)cc3)CC2)cc1)N1CCOCC1 (configuration not stated) | inconclusive: 20.6 µM [cytotoxic, partial curve]
COc1ccc(Cn2c(=O)[nH]c3cc(C(=O)N4CCN(c5ccccc5OC)CC4)ccc3c2=O)cc1 | inconclusive: 13 µM [cytotoxic, partial curve]
O=c1oc(-c2cccc([N+](=O)[O-])c2)nc2ccccc12 | inconclusive: 20.6 µM [rising, single point]
O=C(CSc1ccc(-c2cccs2)nn1)Nc1ccccc1F | inconclusive: 14.6 µM [cytotoxic, partial curve, poor fit]
CCNc1nc(OC)nc(SCC(=O)Nc2ccccc2)n1 | inactive
COc1ccc(NC(=O)Cn2c(=O)n(-c3ccc(C)cc3)c(=O)c3c2cnn3C)cc1 | inactive
COc1cccc(-c2cnc3c(NC=O)cc(-c4ccncc4)cn23)c1 | inconclusive: 29.1 µM [cytotoxic, single point]
O=C(Nc1ccccc1)N1N=C(c2ccc(F)cc2)CC1c1ccc(F)cc1 (configuration not stated) | inconclusive: 5.8 µM [cytotoxic, full curve]
CC(C)C(=O)Nc1cccc(NC(=S)NC(=O)C(c2ccccc2)c2ccccc2)c1 | inconclusive: 25.9 µM [cytotoxic, single point]
COc1cccc(CN2CCNC(=O)C2CC(=O)NCC2CCOCC2)c1 (configuration not stated) | inactive
COC(=O)C1=C(C(=O)OC)[C@@H]2N(Cc3ccccc3)c3ccccc3[C@@]23C[C@@H](CO)N(C(=O)NC2CCCC2)C3=N1 | inconclusive: 13 µM [rising, single point]
Cn1c(/C=C/c2cccc([N+](=O)[O-])c2)c([N+](=O)[O-])c(=O)n(C)c1=O | inconclusive: 20.6 µM [cytotoxic, single point]
CCOC(=O)c1cc2c(=O)n3ccccc3nc2n(Cc2ccco2)c1=NC(=O)c1c(F)cccc1Cl | inactive

Sorted by molecular weight (falling): some entries from above
SMILES | Potency
Cc1ccsc1/C=N/NC(=O)CN1CCN(S(=O)(=O)c2ccc(Br)cc2)CC1 | inconclusive: 20.6 µM [cytotoxic, single point]
O=S(=O)(c1ccc(OCC(O)CN2CCN(c3ccc(F)cc3)CC2)cc1)N1CCOCC1 (configuration not stated) | inconclusive: 20.6 µM [cytotoxic, partial curve]
CCNc1nc(OC)nc(SCC(=O)Nc2ccccc2)n1 | inactive
